Source: ChEMBL document CHEMBL1145327, “Structural insights into monoamine oxidase inhibitory potency and selectivity of 7-substituted coumarins from ligand- and target-based approaches” (J Med Chem, 2006)

What was measured:
[1] = target: T1, Amine oxidase [flavin-containing] A (Rattus norvegicus, UniProt P21396); format: mitochondria, Sprague-Dawley, Mitochondria
T1 sequence (P21396 whole entry): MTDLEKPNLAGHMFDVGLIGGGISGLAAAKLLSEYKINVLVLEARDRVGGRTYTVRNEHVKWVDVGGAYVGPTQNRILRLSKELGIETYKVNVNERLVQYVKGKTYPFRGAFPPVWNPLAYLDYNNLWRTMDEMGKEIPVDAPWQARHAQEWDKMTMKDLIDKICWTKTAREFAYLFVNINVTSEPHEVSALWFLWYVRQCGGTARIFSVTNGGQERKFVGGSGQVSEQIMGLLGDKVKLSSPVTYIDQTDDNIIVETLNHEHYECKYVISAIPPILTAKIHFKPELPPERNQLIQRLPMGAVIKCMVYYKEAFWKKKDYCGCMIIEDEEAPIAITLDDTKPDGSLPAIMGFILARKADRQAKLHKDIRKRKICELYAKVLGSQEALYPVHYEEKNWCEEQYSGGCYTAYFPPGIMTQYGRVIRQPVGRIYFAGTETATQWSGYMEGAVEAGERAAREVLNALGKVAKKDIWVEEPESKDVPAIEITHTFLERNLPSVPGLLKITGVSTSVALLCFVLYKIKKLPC

[2] = target: T2, Amine oxidase [flavin-containing] B (Rattus norvegicus, UniProt P19643); format: mitochondria, Sprague-Dawley, Mitochondria
T2 sequence (P19643 whole entry): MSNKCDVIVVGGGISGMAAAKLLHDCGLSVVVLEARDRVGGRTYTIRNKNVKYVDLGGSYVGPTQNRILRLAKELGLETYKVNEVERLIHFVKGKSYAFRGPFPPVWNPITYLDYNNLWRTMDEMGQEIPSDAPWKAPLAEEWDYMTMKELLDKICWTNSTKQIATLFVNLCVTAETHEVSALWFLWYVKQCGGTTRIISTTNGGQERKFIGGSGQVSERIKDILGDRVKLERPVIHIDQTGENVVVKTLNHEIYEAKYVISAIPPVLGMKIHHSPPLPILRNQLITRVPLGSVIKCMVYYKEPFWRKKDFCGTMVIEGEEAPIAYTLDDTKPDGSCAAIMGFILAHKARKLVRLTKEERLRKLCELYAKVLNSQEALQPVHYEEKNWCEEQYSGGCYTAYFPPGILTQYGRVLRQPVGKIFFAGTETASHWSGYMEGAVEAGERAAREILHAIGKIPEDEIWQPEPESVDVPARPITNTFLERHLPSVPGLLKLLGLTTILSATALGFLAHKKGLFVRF

Q: With `O=c1ccc2ccc(OS(=O)(=O)c3ccccc3)cc2o1` as the compound, how does the IC50 [1] read?
A: 0.447 µM

Q: What about the IC50 [2] of the same compound?
A: 55 µM
